In PubChem BioAssay AID276 (DTP/NCI, 2004):
The list is a part of this screen's results and no random one: it gathers tests that were run many times, whatever their T/C, doses with no T/C, and many T/C values between a quarter and a half above the control. Further doses and runs are listed elsewhere. T/C: endpoint of the treated group in % of that of the vehicle group. Some entries give survivors of the animals treated and no T/C: the source files T/C as zero there, which appears to mark a toxic dose or a test without result, not a measured value. Some doses without a T/C left all or most animals alive at the check, yet need not have been tolerated: survival well below the control is almost never listed, so the zero probably covers shortened survival too. Survivors were counted at the toxicity check, usually on the fifth day, unless a day is given; later deaths do not show. Schedule codes are those of the source, taken here to give the interval after Q, in days (D) or hours (H), and the number of doses after X. Some entries hold several experiments; the values are given in rising order. For survival time, this PubChem deposit counts one and a half times the control or more as active, and values a quarter to a half above the control carry no call in these data; other NCI protocols may use other cut-offs.

Test system: B6C3F1 mice, Lewis lung carcinoma iv, survival T/C
Assay: NCI In Vivo Anticancer Drug Screen. Data for tumor model Lewis Lung Carcinoma (intravenous) in B6C3F1 mice
Conditions: T/C endpoint: median survival time, higher T/C = longer survival
Method in brief: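 T/C ratio derived from survival of compound-treated versus vehicle-treated mice bearing transplantable tumors.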

[1] = dose: 100.0 mg/kg/injection, schedule: Q01DX009 (ip), vehicle: Klucel (hydroxypropylcellulose) (HPC)
[2] = dose: 200.0 mg/kg/injection, schedule: Q01DX009 (ip), vehicle: Klucel (hydroxypropylcellulose) (HPC)
[3] = dose: 50.0 mg/kg/injection, schedule: Q01DX009 (ip), vehicle: saline
[4] = dose: 100.0 mg/kg/injection, schedule: Q01DX009 (ip), vehicle: saline
[5] = dose: 200.0 mg/kg/injection, schedule: Q01DX009 (ip), vehicle: saline
[6] = dose: 3.0 mg/kg/injection, schedule: Q01DX009 (ip), vehicle: Klucel (hydroxypropylcellulose) (HPC)
[7] = dose: 6.0 mg/kg/injection, schedule: Q01DX009 (ip), vehicle: Klucel (hydroxypropylcellulose) (HPC)
[8] = dose: 25.0 mg/kg/injection, schedule: Q01DX009 (ip), vehicle: Klucel (hydroxypropylcellulose) (HPC)
[9] = dose: 50.0 mg/kg/injection, schedule: Q01DX009 (ip), vehicle: Klucel (hydroxypropylcellulose) (HPC)
[10] = dose: 32.0 mg/kg/injection, schedule: Q01DX009 (ip), vehicle: water
[11] = dose: 400.0 mg/kg/injection, schedule: Q01DX009 (ip), vehicle: saline
[12] = dose: 50.0 mg/kg/injection, schedule: Q01DX009 (ip), vehicle: saline with Tween-80
[13] = dose: 100.0 mg/kg/injection, schedule: Q01DX009 (ip), vehicle: saline with Tween-80
[14] = dose: 200.0 mg/kg/injection, schedule: Q01DX009 (ip), vehicle: saline with Tween-80
[15] = dose: 400.0 mg/kg/injection, schedule: Q01DX009 (ip), vehicle: saline with Tween-80
[16] = dose: 400.0 mg/kg/injection, schedule: Q01DX001 (ip), vehicle: saline

COC1/C=C/C=C(/C)Cc2cc(O)c(Cl)c(c2)N(C)C(=O)CC(OC(=O)C(C)C)C2(C)OC2C(C)C2CC1(O)NC(=O)O2 (configuration not stated)
survivor count (dose: 1.0 mg/kg/injection, schedule: Q01DX009 (ip), vehicle: saline + alcohol): 9 of 10
survivor count (dose: 2.0 mg/kg/injection, schedule: Q01DX009 (ip), vehicle: saline + alcohol): 3 of 10
survivor count (dose: 4.0 mg/kg/injection, schedule: Q01DX009 (ip), vehicle: saline + alcohol): 0 of 10

Cc1cc(Nc2ccc3c(c2)OCO3)c2cc3c(cc2n1)OCO3
survivor count [1]: 10 of 10
survivor count [2]: 1 of 10
survivor count (dose: 400.0 mg/kg/injection, schedule: Q01DX009 (ip), vehicle: Klucel (hydroxypropylcellulose) (HPC)): 0 of 10

O=[N+]([O-])c1c(O)c(CNCCCO)cc(CNCCCO)c1O
survivor count [3]: 10 of 10
survivor count [4]: 0 of 10
survivor count [5]: 0 of 10

C=C(OP(=O)(OC)OC)Sc1ccccc1C
survivor count (dose: 1.0 mg/kg/injection, schedule: Q01DX009 (ip), vehicle: Klucel (hydroxypropylcellulose) (HPC)): 0 of 10
survivor count (dose: 1.5 mg/kg/injection, schedule: Q01DX009 (ip), vehicle: Klucel (hydroxypropylcellulose) (HPC)): 6 of 10
survivor count [6]: 0 of 10
survivor count [7]: 0 of 10
survivor count (dose: 12.0 mg/kg/injection, schedule: Q01DX009 (ip), vehicle: Klucel (hydroxypropylcellulose) (HPC)): 0 of 10
survivor count [8]: 0 of 10
survivor count [9]: 0 of 10
survivor count [1]: 0 of 10
survivor count [2]: 0 of 10

[Cl][Pt+2][Cl].[NH-]CC1(C[NH-])CCC1
survivor count (dose: 6.25 mg/kg/injection, schedule: Q01DX009 (ip), vehicle: suspension in saline): 9 of 10
survivor count (dose: 12.5 mg/kg/injection, schedule: Q01DX009 (ip), vehicle: suspension in saline): 0 of 10
survivor count (dose: 25.0 mg/kg/injection, schedule: Q01DX009 (ip), vehicle: suspension in saline): 3 of 10
survivor count (dose: 50.0 mg/kg/injection, schedule: Q01DX009 (ip), vehicle: suspension in saline): 1 of 10

C[C@H](N)C(=O)N[C@@H]1[C@H]2C(=C(O)C[C@@H](O)[C@@H]2O)C(=O)O[C@]1(C)C(Cl)Cl
survivor count [6]: 10 of 10
survivor count [7]: 1 of 10

C[n+]1c(-c2cccc(OCCOCCOc3cccc(-c4c5cc(N)ccc5c5ccc(N)cc5[n+]4C)c3)c2)c2cc(N)ccc2c2ccc(N)cc21
T/C [10]: 139 % of control
survivor count [10]: 10 of 10
survivor count (dose: 64.0 mg/kg/injection, schedule: Q01DX009 (ip), vehicle: water): 7 of 10
survivor count (dose: 128.0 mg/kg/injection, schedule: Q01DX009 (ip), vehicle: water): 0 of 10

COC(=O)Nc1nc2ccc(C3(c4ccc(F)cc4)OCCO3)cc2[nH]1
survivor count [3]: 9 of 10

CC1=NN(c2cccc(S(=O)(=O)O)c2)C(=O)C1N=Nc1cc(Cl)cc(S(=O)(=O)O)c1O.CC1=NN(c2cccc(S(=O)(=O)O)c2)C(=O)C1N=Nc1cc(Cl)cc(S(=O)(=O)O)c1O.[Cr] (configuration not stated)
survivor count [11]: 1 of 10
survivor count (dose: 800.0 mg/kg/injection, schedule: Q01DX009 (ip), vehicle: saline): 0 of 10

Cn1/c2cc/c1=C(\c1ccc(S(=O)(=O)O)cc1)c1ccc([n-]1)/C(c1ccc(S(=O)(=O)O)cc1)=c1/cc/c([nH]1)=C(\c1ccc(S(=O)(=O)O)cc1)c1ccc([n-]1)/C=2c1ccc(S(=O)(=O)O)cc1.O.O=S(=O)(O)C(F)(F)F.[Cu+2]
survivor count [4]: 7 of 10
survivor count [5]: 2 of 10

CN(C)[C@@H]1C(=O)C(C(N)=O)=C(O)[C@@]2(O)C(=O)C3=C(O)c4c(O)ccc(Cl)c4[C@@](C)(O)[C@H]3C[C@@H]12
survivor count [11]: 0 of 10

CC(CN1CC(=O)NC(=O)C1)N1CC(=O)NC(=O)C1 (configuration not stated)
T/C (dose: 64.8 mg/kg/injection, schedule: Q04DX003 (ip), vehicle: Klucel (hydroxypropylcellulose) (HPC)): 130 % of control
survivor count (dose: 500.0 mg/kg/injection, schedule: Q04DX003 (ip), vehicle: Klucel (hydroxypropylcellulose) (HPC)): 10 of 10

COc1cc(NCc2ccc3nc(N)nc(N)c3c2C)cc(OC)c1OC
survivor count (dose: 6.25 mg/kg/injection, schedule: Q01DX009 (ip), vehicle: water): 9 of 9
survivor count (dose: 100.0 mg/kg/injection, schedule: Q01DX009 (ip), vehicle: water): 10 of 10
survivor count (dose: 200.0 mg/kg/injection, schedule: Q01DX009 (ip), vehicle: water): 0 of 10

CCN(C)N=Nc1ccc(C(N)=O)cc1
survivor count [1]: 10 of 10
survivor count [2]: 10 of 10

ClC1=C(Cl)C(Cl)=C(Cl)C1=Cc1ccccc1
survivor count (dose: 12.5 mg/kg/injection, schedule: Q01DX009 (ip), vehicle: saline with Tween-80): 6 of 10
survivor count (dose: 25.0 mg/kg/injection, schedule: Q01DX009 (ip), vehicle: saline with Tween-80): 1 of 10
survivor count [12]: 0 of 10
survivor count [13]: 0 of 10 and 9 of 10

CCCCn1cnc2c(=S)nc[nH]c21
survivor count [4]: 10 of 10
survivor count [5]: 10 of 10
survivor count [11]: 10 of 10

c1ccc(P(CCNCCP(c2ccccc2)c2ccccc2)c2ccccc2)cc1
survivor count [13]: 6 of 10
survivor count [14]: 5 of 10
survivor count [15]: 2 of 10

CCCCOCN(COCCCC)C(C)Cc1ccccc1 (configuration not stated)
survivor count [15]: 3 of 10

CC(C)CCC(=O)c1ccoc1
survivor count (dose: 2.0 mg/kg/injection, schedule: Q03HX027 (ip), vehicle: saline with Tween-80): 6 of 10

O=C(C1CO1)C(Cl)(Cl)Cl (configuration not stated)
survivor count [12]: 1 of 8
survivor count [13]: 0 of 8
survivor count [14]: 0 of 8

Nc1nc(F)nc2c1ncn2C1OC(COP(=O)(O)O)C(O)C1O (configuration not stated)
survivor count [11]: 9 of 10

O=P1(N(CCCl)CCCl)NCCCO1 (configuration not stated)
T/C (dose: 25.0 mg/kg/injection, schedule: Q01DX009 (ip), vehicle: saline): 149 % of control
T/C (dose: 50.0 mg/kg/injection, schedule: Q01DX001 (ip), vehicle: saline): 133 % of control
survivor count [3]: 10 of 10
survivor count [4]: 9 of 10 and 10 of 10
T/C [16]: 125 % of control
survivor count [16]: 10 of 10

COC(=O)Nc1cn2ccc(C(Cl)=C(Cl)Cl)cc2n1
T/C [9]: 127 % of control

CCCCCC[Se][Se]CCCCCC
survivor count [8]: 3 of 10
survivor count [9]: 2 of 10

COc1ccc(/C=C/C(=O)c2cc(C(=O)O)c(OC)cc2OC)cc1OC
survivor count (dose: 400.0 mg/kg/injection, schedule: Q01DX009 (ip), vehicle: suspension in saline): 7 of 10
